Measurements taken from PubChem BioAssay AID1347076 (National Center for Advancing Translational Sciences (NCATS), 2019).
Hit rate of the full screen: of about 400,000 compounds, about 13,000 (3.2%) were called active. This list was built around the results that the source calls inconclusive (neither active nor inactive); the mix of calls is not that of the screen. The call rests on the fitted dose curve; in most records, active means well fitted cell-killing curve with a large enough effect; inconclusive means small, poorly fitted or top-dose-only effect, or effect the other way; inactive means flat fitted curve, though single readings scatter. Potencies beside an inconclusive call are fits to weak or partial responses and may not hold up.

Experiment: qHTS assay for MDR1-selective chemotherapeutics: Primary screen using the drug-selected MDR subline cells KB-V1; further: nearly all actives have a fitted effect of over 60% in size
Details: KB-V1 MDR cells viability, CellTiter-Glo, 72 h; activity change, negative = cytotoxicity: at 46.1 µM (top of the series)
How it was run: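 Following 72 h at 37 degrees C with compound, KB-V1 cell viability was read by CellTiter-Glo luminescence, medium being phenol-red-free DMEM plus 10% FBS; concentration-response parameters came from normalized, curve-fitted qHTS data.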
On the % scale 0 is the no-effect control and ±100 the full control effect; potency means the concentration at half of the fitted maximal effect.

Which Potency does the source give for `COc1ccc2[nH]c(=O)c(-c3nnn(-c4ccc(Cl)nc4)n3)cc2c1` here?
Its Potency is inconclusive: 10.3 µM [rising, partial curve, poor fit].

For `S=C(NCC1COc2ccccc2O1)Nc1ccc(Br)cc1` (stereo not drawn), which Potency is on record?
Its Potency is active: 23.1 µM.

With `Cc1cc(C)n2nc(SC(C)C(=O)NC3CCCCC3C)nc2n1` (stereo not drawn) as the molecule, how does the “activity change, negative = cytotoxicity” value read?
The value was inactive: -38%.

With `O=C(Cn1c(-c2ccccc2Cl)nc2ccccc21)Nc1cccc(Cl)c1` as the molecule, how does the Potency read?
The Potency was inconclusive: 20.6 µM [rising, partial curve, poor fit].

For `Cc1c(Cl)cccc1NC(=O)Cn1cnc2nc3c(cc2c1=O)CCCC3`, which Potency is on record?
The Potency was inconclusive: 29.1 µM [cytotoxic, single point].

With `O=C(CCN1C(=O)c2ccccc2C1=O)N1CCN(Cc2ccccc2)CC1` as the molecule, how does the “activity change, negative = cytotoxicity” value read?
Its value is inactive: 1.79%.

For `Cc1nnc(SCCn2c(N3CCCC(C)C3)nc3c2c(=O)n(C)c(=O)n3C)s1` (stereo not drawn), which “activity change, negative = cytotoxicity” value is on record?
Its value is inactive: 3.31%.

With `CC1=C(C(=O)Nc2cccc(C(=O)NCC(C)c3ccccc3)c2)SCCO1` (stereo not drawn) as the molecule, how does the Potency read?
The Potency was inconclusive: 2.06 µM [cytotoxic, partial curve, poor fit].

Which Potency does the source give for `O=C(Nc1ccccc1)Nc1ccc(C(=O)N2CCOCC2)cc1` here?
The Potency was inconclusive: 23.1 µM [cytotoxic, partial curve].

For `CC1CC(C)CN(C(=O)COC(=O)/C=C/c2cccc([N+](=O)[O-])c2)C1` (stereo not drawn), which Potency is on record?
The Potency was inconclusive: 23.1 µM [cytotoxic, partial curve].

For `CN1/C(=C/C(=O)c2nc(S(C)(=O)=O)ncc2Cl)C(C)(C)c2ccccc21`, which Potency is on record?
Its Potency is inconclusive: 20.6 µM [cytotoxic, single point].

For `FC(F)(F)c1cccc(N2CCN(C(=S)NCC3CCCO3)CC2)c1` (stereo not drawn), which “activity change, negative = cytotoxicity” value is on record?
The value was inactive: -0.299%.

With `O=C1c2cccc(-c3ccc(C(F)(F)F)cc3)c2C2CC=CCN12` (stereo not drawn) as the molecule, how does the “activity change, negative = cytotoxicity” value read?
Its value is inactive: -3.52%.

For `CC(C)CCn1cnc2c(sc3nc4c(cc32)CSC(C)(C)C4)c1=O`, which Potency is on record?
Its Potency is inconclusive: 3.66 µM [cytotoxic, partial curve, poor fit].

Which “activity change, negative = cytotoxicity” value does the source give for `COc1cccc(CNc2nc3cc(-c4ccccc4)sc3c(=O)n2C)c1OC` here?
The value was inactive: 0%.

For `COc1ccc2c(c1)c1c(c(=O)n(-c3ccccc3)c(=O)n1CC(=O)Nc1ccc(C)c(C)c1)n2C`, which “activity change, negative = cytotoxicity” value is on record?
The value was inactive: 2.52%.

Which Potency does the source give for `CCc1cc2cc(C)ccc2nc1SCC(=O)NC1CCCC1` here?
Its Potency is inconclusive: 9.2 µM [cytotoxic, partial curve].

With `COc1ccc(COCC(O)CN(Cc2ccco2)Cc2ccccc2O)cc1` (stereo not drawn) as the molecule, how does the Potency read?
The Potency was active: 20.6 µM.

With `COc1ccc(C2C(C(=O)Nc3cc(C)on3)c3ccccc3C(=O)N2C)cc1OC` (stereo not drawn) as the molecule, how does the Potency read?
The Potency was inconclusive: 23.1 µM [cytotoxic, partial curve, poor fit].

Which Potency does the source give for `CSC1=C(C#N)C(c2ccncc2)C(C(=O)Nc2ccccc2)=C(C)N1` (stereo not drawn) here?
The Potency was inconclusive: 20.6 µM [cytotoxic, single point].

With `CCCC(=O)N1CCCC1(C)C(=O)Nc1cccc(OC(C)C)c1` (stereo not drawn) as the molecule, how does the “activity change, negative = cytotoxicity” value read?
Its value is inactive: -25.9%.

For `Fc1ccc(NC(=S)Nc2cccc3cnccc23)cc1`, which Potency is on record?
Its Potency is inconclusive: 16.4 µM [cytotoxic, single point].

Which Potency does the source give for `COc1ccccc1CNC(=O)CCN=C1NS(=O)(=O)c2ccccc21` here?
Its Potency is inconclusive: 29.1 µM [rising, single point].

Which Potency does the source give for `CC1Cc2nc(SCC(=O)Nc3ccc4c(c3)OCO4)n(Cc3ccccc3)c(=O)c2S1` (stereo not drawn) here?
Its Potency is inconclusive: 10.3 µM [cytotoxic, partial curve].

With `Cc1ccc(C)c(N2CCN(CCCNC(=O)CCn3c(=O)c4cccn4c4cccnc43)CC2)c1` as the molecule, how does the “activity change, negative = cytotoxicity” value read?
Its value is inactive: 3.82%.

Which Potency does the source give for `Cc1ccc(C(=O)CCC2CCCCC2=O)cc1` (stereo not drawn) here?
Its Potency is inconclusive: 29.1 µM [cytotoxic, single point].

For `COc1ccc(C(=O)N2CCOC2CNC(=O)C(=O)NCc2ccc(C)cc2)cc1` (stereo not drawn), which Potency is on record?
Its Potency is inconclusive: 18.4 µM [cytotoxic, single point].

For `CCN(CC)C(=O)CN(c1cccc(C(F)(F)F)c1)S(C)(=O)=O`, which Potency is on record?
The Potency was inconclusive: 16.4 µM [cytotoxic, partial curve].

Which Potency does the source give for `CCOC(=O)C1=C(CSCc2ccccc2)NC(=O)NC1c1cc(C)ccc1C` (stereo not drawn) here?
The Potency was active: 9.2 µM.

Which Potency does the source give for `CCOc1cc(/C=C2/C(=O)ON=C2C)ccc1O` here?
The Potency was inconclusive: 20.6 µM [rising, single point].

With `O=C1c2ccccc2S(=O)(=O)N1Cc1cc(=O)n2ccsc2n1` as the molecule, how does the “activity change, negative = cytotoxicity” value read?
Its value is inactive: 18.8%.

With `N#CCC(=O)Nc1ccc(C(=O)OCC(=O)NNC(=O)c2cccs2)cc1` as the molecule, how does the Potency read?
The Potency was inconclusive: 20.6 µM [rising, single point].

Which “activity change, negative = cytotoxicity” value does the source give for `O=[N+]([O-])c1ccc(Oc2cccnc2)c([N+](=O)[O-])c1` here?
The value was inactive: -14.9%.

Which activity change, negative = cytotoxicity does the source give for `CN(C)Cc1c(O)ccc2occ(C(=O)c3ccccc3)c12` here?
Its activity change, negative = cytotoxicity is inconclusive: -5.91%.

For `O=[N+]([O-])c1cccc(SSc2cccc([N+](=O)[O-])c2)c1`, which “activity change, negative = cytotoxicity” value is on record?
The value was inactive: 16.3%.

Which Potency does the source give for `CCOC(=O)CSc1n[nH]c(=O)n1CCc1ccccc1` here?
The Potency was inconclusive: 29.1 µM [rising, single point].

With `CC(C)C(NC(=O)CCNC(=O)c1ccccc1Cl)c1nc2ccccc2[nH]1` (stereo not drawn) as the molecule, how does the Potency read?
The Potency was inconclusive: 29.1 µM [rising, single point].

Which “activity change, negative = cytotoxicity” value does the source give for `CC(C)(C)C1CCc2c(sc(NC(=O)c3cc(C4CC4)on3)c2C#N)C1` (stereo not drawn) here?
The value was inactive: -9.2%.

For `COc1ccc(C(CCNCc2ccc(N(C)C)cc2)C(C)C)cc1` (stereo not drawn), which Potency is on record?
Its Potency is active: 16.4 µM.

Which Potency does the source give for `COc1ccc(C(CNC(=O)CSc2ccc(Br)cc2C)N2CCOCC2)cc1` (stereo not drawn) here?
Its Potency is inconclusive: 7.31 µM [cytotoxic, partial curve].

Which “activity change, negative = cytotoxicity” value does the source give for `Cc1ccc2c(c1)N(CC(=O)N1CCCCC1c1cccnc1)C(=O)CO2` (stereo not drawn) here?
The value was inactive: -0.656%.

With `O=C(O)c1cc([N+](=O)[O-])ccc1NCc1ccccc1` as the molecule, how does the “activity change, negative = cytotoxicity” value read?
The value was inactive: -20.6%.

With `COc1ccccc1CNC(=O)C1CCN(c2nc3ccccc3o2)CC1` as the molecule, how does the “activity change, negative = cytotoxicity” value read?
The value was inactive: -16.6%.

Which Potency does the source give for `O=C(CCCn1c(SCC(=O)c2ccc(F)cc2)nc2ccccc2c1=O)NCc1ccco1` here?
Its Potency is active: 5.8 µM.

For `CCc1ccc(NC(=O)CCCN2C(=S)NC(C)(C)CC2C)cc1` (stereo not drawn), which Potency is on record?
The Potency was inconclusive: 23.1 µM [cytotoxic, partial curve, poor fit].

Which “activity change, negative = cytotoxicity” value does the source give for `CCCCCCCOc1ccc(OC(=O)c2ccncc2)cc1` here?
The value was inactive: 4.79%.

Which “activity change, negative = cytotoxicity” value does the source give for `Cc1cc(/N=C/C=C2\N(C)c3ccccc3C2(C)C)n(CCC#N)n1` here?
The value was inactive: -10.5%.

Which Potency does the source give for `c1ccc(-n2nnnc2Oc2ccc(-n3ccnc3)cc2)cc1` here?
Its Potency is inconclusive: 29.1 µM [cytotoxic, single point].
